Out of some 390,000 compounds screened, about 820 (0.21%) were called active. Inconclusive means that the source gave no clear call. Such entries were picked first, then a sample of the others. Calls follow the shape of the dose curve; as a rule, active = well fitted inhibition curve with a large enough effect; inconclusive = small, poorly fitted or top-dose-only effect, or another doubt; inactive = no such curve, though single readings can be large or run the other way. A potency beside an inconclusive call is a rough fit, not a confirmed value.
biological target: Histone acetyltransferase KAT2A (Homo sapiens) (UniProt Q92830); assay: qHTS Assay for Inhibitors of GCN5L2; conditions: GCN5L2 HAT assay, ThioGlo1 CoA-SH fluorescence; activity change, negative = inhibition: at 58.9 µM (top of the series) unless noted
Summary of the method: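 Compounds, pin-transferred from DMSO stocks, meet 20nM GCN5L2 for 15 min before the reaction begins with H3(1-25) peptide (75uM) and acetyl-CoA (70uM). Thiol-reactive ThioGlo1 reports CoA release over 20 min at room temperature.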
% is scaled to controls: 0 for no effect and ±100 for the full control effect; potency is read from the fitted curve at half-maximal effect.

Chains of the proteins cited; added tags and fusions are not shown.
UniProt Q92830, whole entry, looked up: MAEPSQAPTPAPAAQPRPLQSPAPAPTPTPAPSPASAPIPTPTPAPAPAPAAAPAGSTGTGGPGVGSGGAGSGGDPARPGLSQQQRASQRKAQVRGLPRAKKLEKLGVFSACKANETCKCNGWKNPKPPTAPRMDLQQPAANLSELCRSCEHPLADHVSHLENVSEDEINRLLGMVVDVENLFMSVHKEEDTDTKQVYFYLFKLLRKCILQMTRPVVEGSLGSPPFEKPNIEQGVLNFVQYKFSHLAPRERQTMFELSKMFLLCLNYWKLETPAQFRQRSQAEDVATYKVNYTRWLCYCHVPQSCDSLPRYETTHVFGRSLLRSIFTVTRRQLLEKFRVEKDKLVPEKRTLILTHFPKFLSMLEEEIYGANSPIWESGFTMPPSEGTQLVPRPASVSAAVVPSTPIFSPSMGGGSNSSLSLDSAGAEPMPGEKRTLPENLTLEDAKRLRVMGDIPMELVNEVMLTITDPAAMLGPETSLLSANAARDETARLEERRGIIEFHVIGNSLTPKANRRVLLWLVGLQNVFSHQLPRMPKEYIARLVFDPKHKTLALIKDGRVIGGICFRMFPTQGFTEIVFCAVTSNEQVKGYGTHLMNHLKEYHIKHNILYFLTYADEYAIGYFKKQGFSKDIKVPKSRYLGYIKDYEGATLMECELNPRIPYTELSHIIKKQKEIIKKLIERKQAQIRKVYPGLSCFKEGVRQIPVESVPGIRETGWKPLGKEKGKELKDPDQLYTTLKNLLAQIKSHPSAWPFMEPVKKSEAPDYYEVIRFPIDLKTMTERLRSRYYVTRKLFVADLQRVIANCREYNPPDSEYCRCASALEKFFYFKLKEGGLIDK

Compound | activity change, negative = inhibition | Potency
COc1nc(Nc2ccc(OC)c(Cl)c2)nc(OC)n1 | inactive: 1.02% | –
O=S(=O)(c1ccc(-c2cc(C(F)(F)F)on2)s1)N1CCN(c2ccccc2)CC1 | – | inconclusive: 0.794 µM [inhibitor, single point]
COc1cnn(-c2cccc(C)c2)c(=O)c1Cl | inactive: -6.29% | –
O=C(N/N=C/c1cc(Br)ccc1O)C(=O)Nc1ccccc1OC(F)(F)C(F)F | – | inconclusive: 39.8 µM [inhibitor, single point]
O=C(Cn1ccc2ccccc2c1=O)NCC1COc2ccccc2O1 (centres undefined) | – | inconclusive: 0.794 µM [inhibitor, full curve]
CCOC(=O)c1cnn(-c2ccc(Cl)cc2)c1C1CCN(C(=O)OC(C)(C)C)CC1 | inactive: -11.5% | –
Cc1cc2nc3c(=O)[nH]c(=O)nc-3n(C)c2cc1C=O | – | active: 28.2 µM
CCCSc1nc(NCc2ccco2)c2c3c(sc2n1)COC(C)(C)C3 | – | inconclusive: 5.01 µM [inhibitor, single point]
O=C(Nc1cc(Cl)cc(Cl)c1)c1coc(=O)c(Br)c1 | – | inconclusive: 39.8 µM [inhibitor, single point]
COc1ccc(CNc2ncc(-c3ccc(Br)cc3)n2C)cc1OC | – | inconclusive: 2.82 µM [inhibitor, partial curve]
CC(=O)NS(=O)(=O)c1ccc(NC(=O)CCC(=O)Oc2ccc(C)cc2)cc1 | inactive: -7.67% | –
O=C(O)c1ccc(-c2ccccc2)[nH]c1=O | inactive: -0.244% | –
COc1ccc(/C=N/Nc2cc(N3CCCC3)nc(N3CCCC3)n2)cc1 | inactive: -12.9% | –
CCOC(=O)CC1C(=O)NCCN1C(=O)c1cc2c(=O)n3ccccc3nc2s1 (centres undefined) | – | inconclusive: 39.8 µM [inhibitor, single point]
Cc1cccc(C)c1OC(=O)CSc1nnc(CNC(=O)c2ccccc2)o1 | inactive: -12.3% | –
CC(C)Oc1cccc(C(=O)NC(=S)N2CCN(c3ccc(C(F)(F)F)cc3[N+](=O)[O-])CC2)c1 | – | inconclusive: 39.8 µM [inhibitor, single point]
CCOC(=O)N1CCN(c2cc(NCCC(=O)O)c3c4c(onc24)-c2ccccc2C3=O)CC1 | – | inconclusive: 31.6 µM [inhibitor, single point]
COc1cc(OC)c(C2CC(=O)N3CN(c4ccc(C)cc4)CSC3=C2C#N)cc1OC (centres undefined) | – | inconclusive: 22.4 µM [inhibitor, partial curve]
Cc1ccc(C(=O)c2c(N)c(C(=O)Nc3ccccc3Cl)c3ccccn23)cc1 | inactive: -9.53% | –
COc1ccc(-n2c(-c3ccc(Br)cc3)c[n+]3c2CCC3)cc1 | inactive: -9.27% | –
O=C(COc1ccc(S(=O)(=O)N2CCCC2)cc1Cl)NCc1ccco1 | – | inconclusive: 39.8 µM [inhibitor, single point]
Cc1noc(C)c1C(=O)N1CCC2(CCCN(C(=O)Nc3cccc(F)c3)C2)CC1 | inactive: 0.16% | –
CCCCCCNC(=O)N[C@@H](C(=O)NCCC[C@H]1CN2C(=NC[C@@H]2Cc2ccccc2)N1CCc1cccc(OC)c1)C(C)C | – | active: 39.8 µM

Compound | activity change, negative = inhibition | Potency
CN(C)c1nc(N2CCN(c3ccc(F)cc3)CC2)c(C#N)c(=O)o1 | – | inconclusive: 39.8 µM [inhibitor, single point]
O=C(O)c1cc(-c2ccco2)nn1-c1cccc(Cl)c1 | – | inconclusive: 22.4 µM [inhibitor, single point]
CN1CCN(c2nc(-c3cccc([N+](=O)[O-])c3)nc3ccccc23)CC1 | inactive: -2.82% | –
Cc1ccc(CC(=O)Nc2ccc3c(c2)N(C)C(=O)c2ccccc2S3)cc1 | – | inconclusive: 28.2 µM [inhibitor, single point]
O=C(CNS(=O)(=O)c1ccccc1)OCC(=O)c1ccccc1Cl | inactive: -0.417% | –
COc1ccccc1-c1cc(C(F)(F)F)nc(S(=O)(=O)CCCC(=O)NC(C)C)n1 | – | inconclusive: 28.2 µM [inhibitor, single point]
CCCS(=O)(=O)c1c(S(=O)(=O)CCC)c2ccc(C(N)=O)cn2c1C(=O)c1ccc(OC)cc1 | inactive: 0.829% | –
CCCCc1ccc(NC(=O)CSc2nc(=O)n(CCN3CCOCC3)c3c2CCC3)cc1 | – | inconclusive: 1.41 µM [inhibitor, full curve, poor fit]
O=C(CSc1nnnn1-c1ccc2c(c1)OCO2)NCc1ccccc1 | – | inconclusive: 8.91 µM [inhibitor, single point]
Cc1cccc(CNc2ncnc3ccc(-c4ccoc4)cc23)c1 | – | inconclusive: 22.4 µM [inhibitor, partial curve]
CCOc1cc(CNC2CCCC2)ccc1OCc1ccccc1Cl | inactive: 0.563% | –
CCOCCCn1c(=S)[nH]c2ncccc2c1=O | – | inconclusive: 2.51 µM [inhibitor, partial curve]
O=C(N/N=C/c1c[nH]c2ccccc12)c1cc(Br)ccc1O | – | inconclusive: 35.5 µM [inhibitor, partial curve]
CCCn1nnc(NC(=O)c2cc(Br)ccc2OC)n1 | – | inconclusive: 8.91 µM [inhibitor, single point]
CCc1ccc(-c2cc(C(=O)N/N=C/c3ccccn3)[nH]n2)cc1 | inactive: -9.46% | –
COc1ccccc1/C=C1\SC(=S)N(CCC(=O)NNC(=O)c2ccccc2O)C1=O | – | inconclusive: 1.78 µM [inhibitor, full curve, poor fit]
CCOC(=O)C1CCCN(C(=O)CN2C(=O)/C(=C/c3ccc(OC)cc3)Oc3ccccc32)C1 (centres undefined) | – | inconclusive: 31.6 µM [inhibitor, single point]
COc1ccc(S(=O)(=O)NCCc2cn3nc(C)c(C)nc3n2)cc1C | – | inconclusive: 39.8 µM [inhibitor, single point]
O=C(c1ccc(Cl)cc1)N1CCC(O)(CSc2ccc(Cl)cc2Cl)CC1 | – | inconclusive: 35.5 µM [inhibitor, single point]
CCN(CC)CCCNC(=O)/C(=C\c1cccn1C)NC(=O)c1cccs1 | inactive: -9.14% | –
CCOC(=O)CSc1nnc(CNC(=O)c2ccc(S(=O)(=O)N3CCCC3)cc2)n1C | – | inconclusive: 7.08 µM [inhibitor, single point]
C/C=C(\C)CN1CCN(c2ccccc2)CC1 | – | active: 31.6 µM
COc1ccc(NC(=S)NC(=O)c2ccccc2)cn1 | – | inconclusive: 7.08 µM [inhibitor, single point]

A second format for part of the listing above:
Compound	activity change, negative = inhibition	Potency
CN(C)c1nc(N2CCN(c3ccc(F)cc3)CC2)c(C#N)c(=O)o1	–	inconclusive: 39.8 µM [inhibitor, single point]
CCN(CC)CCCNC(=O)/C(=C\c1cccn1C)NC(=O)c1cccs1	inactive: -9.14%	–

Further results follow.

Compound | activity change, negative = inhibition | Potency
Cc1cc(C)c(S(=O)(=O)N2CCC(C(=O)NCc3ccncc3)CC2)c(C)c1 | – | inconclusive: 3.16 µM [inhibitor, partial curve]
C=CCN1CC(C(=O)N(CCCN(C)C)C(=O)NCC)CC2c3cccc4[nH]cc(c34)CC21 (centres undefined) | inactive: 1.33% | –
CC(=O)Nc1ccc(/C=N/Nc2nncc3ccccc23)cc1 | – | inconclusive: 15.8 µM [inhibitor, partial curve, poor fit]
Nc1n[nH]c(=S)n1-c1ccc(Cl)cc1 | – | inconclusive: 39.8 µM [inhibitor, single point]
CCOc1ccccc1NC(=O)C(=O)N/N=C/c1cc(Br)ccc1O | – | inconclusive: 0.562 µM [inhibitor, full curve, poor fit]
COC(=O)c1c(-c2ccc(N(C)C)cc2)sc2ccc(OC)cc12 | – | inconclusive: 35.5 µM [inhibitor, single point]
CN(C)c1ccc(/C=N/NC(=S)NCc2ccccc2)cc1 | inactive: -9.18% | –
COc1cccc(-c2nc(Nc3ccncc3)c3ccccc3n2)c1 | – | inconclusive: 39.8 µM [inhibitor, single point]
COc1ccc(NS(=O)(=O)c2cccc(C(=O)N/N=C/c3ccc4c(c3)OCCO4)c2)cc1 | inactive: -7.37% | –
CCOc1ccc(OCCn2nnc3ccccc3c2=O)cc1 | – | inconclusive: 0.794 µM [inhibitor, single point]
Cc1c(C(=O)Nc2cccc(N(C)S(C)(=O)=O)c2)cccc1[N+](=O)[O-] | inactive: -11.1% | –
O=C1C(Cc2ccccc2)Nc2ncnc(N3CCOCC3)c2N1Cc1ccc(Cl)cc1 (centres undefined) | – | inconclusive: 39.8 µM [inhibitor, single point]
CCN(c1ccccc1C(=O)O)S(=O)(=O)c1ccc2[nH]c(=O)[nH]c2c1 | – | inconclusive: 3.55 µM [inhibitor, single point]
CCN(CC)C(=O)Cn1cc(C(=O)C(=O)N(CC)C2CCCCC2)c2ccccc21 | – | inconclusive: 0.158 µM [inhibitor, full curve, poor fit]
COc1cccc(CN2CC(C(=O)N(C)CC3CCOCC3)CCC2=O)c1 (centres undefined) | inactive: -8.77% | –
C/C(N)=C(/C#N)C(=O)COC(=O)c1oc2ccccc2c1COC(C)C | – | inconclusive: 0.631 µM [inhibitor, single point]
CC[N+](CC)(CC)CCOc1ccc(/C=C\c2ccccc2)cc1 | – | inconclusive: 25.1 µM [inhibitor, partial curve]
COc1ccc(NCc2cc3cc4c(cc3n(CC(=O)Nc3ccccc3)c2=O)OCO4)cc1 | – | inconclusive: 3.16 µM [inhibitor, full curve, poor fit]
Nc1cc(S(=O)(=O)N2CCOCC2)ccc1N1CCCCC1 | – | inconclusive: 35.5 µM [inhibitor, single point]
COc1ccc(-c2csc(NC(=O)c3ccc(S(=O)(=O)N4CCc5ccccc5C4)cc3)n2)c(OC)c1 | inactive: -10.7% | –
CCOC(=O)C(C(=O)OCC)c1cc(Br)c2noc3c2c1C(=O)c1ccccc1-3 | – | inconclusive: 5.01 µM [inhibitor, full curve, poor fit]
O=C(O)CC(SCC(=O)Nc1ccc(S(=O)(=O)N2CCCC2)cc1)C(=O)O (centres undefined) | inactive: 2.8% | –
COC(=O)c1ccc(CN2CCCC(C(=O)Nc3cccc(-n4cnnn4)c3)C2)cc1 (centres undefined) | – | inconclusive: 0.1 µM [inhibitor, full curve, poor fit]

In the list so far, these contain a Cl atom:
Compound | activity change, negative = inhibition | Potency
COc1nc(Nc2ccc(OC)c(Cl)c2)nc(OC)n1 | inactive: 1.02% | –
COc1cnn(-c2cccc(C)c2)c(=O)c1Cl | inactive: -6.29% | –
CCOC(=O)c1cnn(-c2ccc(Cl)cc2)c1C1CCN(C(=O)OC(C)(C)C)CC1 | inactive: -11.5% | –
O=C(Nc1cc(Cl)cc(Cl)c1)c1coc(=O)c(Br)c1 | – | inconclusive: 39.8 µM [inhibitor, single point]
Cc1ccc(C(=O)c2c(N)c(C(=O)Nc3ccccc3Cl)c3ccccn23)cc1 | inactive: -9.53% | –
O=C(COc1ccc(S(=O)(=O)N2CCCC2)cc1Cl)NCc1ccco1 | – | inconclusive: 39.8 µM [inhibitor, single point]
O=C(O)c1cc(-c2ccco2)nn1-c1cccc(Cl)c1 | – | inconclusive: 22.4 µM [inhibitor, single point]
O=C(CNS(=O)(=O)c1ccccc1)OCC(=O)c1ccccc1Cl | inactive: -0.417% | –
CCOc1cc(CNC2CCCC2)ccc1OCc1ccccc1Cl | inactive: 0.563% | –
O=C(c1ccc(Cl)cc1)N1CCC(O)(CSc2ccc(Cl)cc2Cl)CC1 | – | inconclusive: 35.5 µM [inhibitor, single point]
Nc1n[nH]c(=S)n1-c1ccc(Cl)cc1 | – | inconclusive: 39.8 µM [inhibitor, single point]
O=C1C(Cc2ccccc2)Nc2ncnc(N3CCOCC3)c2N1Cc1ccc(Cl)cc1 (centres undefined) | – | inconclusive: 39.8 µM [inhibitor, single point]
